Here are results for 15 compounds from PubChem BioAssay AID2685 (National Center for Advancing Translational Sciences (NCATS), 2010).

Each structure is given as a SMILES string. Some of the results follow. These are further read-outs of the screen, such as a control signal, another cell line or another target. No call is given for them. The list favours compounds with an active or inconclusive main result. The note in brackets gives the kind of curve behind each potency; many fits are weak.

Usually AC50 stands for the concentration at which the activity in the assay is half-maximal.

The experiment in a line: qHTS Assay for Lipid Storage Modulators in Drosophila S3 Cells.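 For cell number change: cells counted by Cell Tracker Red CMTPX staining in the red channel.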 The note with it: BODIPY lipid droplet fluorescence, 18-24 h; for cell number change: measured here: cell count max response, cells fed with added oleic acid. Summed up:
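Drosophila S3 cells loaded with oleic acid (400 uM, as added) and compounds at several concentrations; lipid droplets imaged by 488-nm laser-scanning cytometry, 500–530 nm intensity and object ratio to cell channel. Percent activity normalized to 20 uM Triacsin C.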
A general note: qHTS replaces the single test concentration by a dilution series.

[1] abbreviates: measured here: cell number channel AC50, cells fed with added oleic acid.
[2] abbreviates: measured here: lipid fluorescence (Fed channel) AC50, cells fed with added oleic acid.

Take `COc1ccc(/C=C/C(=O)c2ccccc2)c(OC)c1`: the cell number change came out at 51.5%. The half-maximal activity concentration (AC50) under setting [1] is 0.82 µM [rising, partial curve, poor fit].
Turning to `CCOC(=O)Cc1nnc(NC(=O)COc2ccc(C)cc2)s1`, the cell number change worked out at 69.9%. For the same compound, under setting [1], the AC50 is 16.4 µM [rising, partial curve]. Besides, the half-maximal activity concentration (AC50) under setting [2] was 8.2 µM [rising, partial curve].
In the case of `CCOc1ccc(-n2ccnc(SCC(=O)Nc3cccc(OC)c3)c2=O)cc1`, the cell number change turned out to be 9.09%. Under setting [1], the AC50 was 0.116 µM [rising, full curve, poor fit]. For the same compound, the half-maximal activity concentration (AC50) under setting [2] is 4.61 µM [falling, single point].
Take `C=CCNC(=O)COC(=O)C1CCN(S(=O)(=O)c2ccc3c(c2)OCCO3)CC1`: the cell number change was found to be 13%. In addition, under setting [1], the concentration at half-maximal activity (AC50) was 2.59 µM [rising, partial curve, poor fit].
As to `N#CCC(=O)N/N=C\c1cc(Br)ccc1OC/C=C/c1ccccc1`, the cell number change was -10.1%. The AC50 under setting [2] was 29.1 µM [rising, single point].
As for `CCC1CCCCN1C(=O)c1ccc([N+](=O)[O-])o1` (centres undefined), the cell number change came to 11.8%. Under setting [1], the half-maximal activity concentration (AC50) is 0.326 µM [rising, partial curve]. In addition, the AC50 under setting [2] was 5.62 µM [falling, single point].
`COc1cccc(/C=C/C(=O)OCC(=O)Nc2ccc(Cl)cn2)c1`: the cell number change stood at 30.1%. Also, the AC50 under setting [1] was 29.1 µM [rising, single point].
In the case of `CCOCCCN(C)C1CCN(C(=O)c2oc3ccccc3c2NC(=O)COc2ccc(F)cc2)CC1`, the cell number change was found to be 39.2%. For the same compound, the AC50 under setting [1] is 1.64 µM [rising, full curve].
For the compound `COc1ccc(C(=O)NN2CCOCC2)cc1`, the cell number change was 21.8%. Moreover, under setting [2], the AC50 is 16.4 µM [rising, single point].
Regarding `C=CCN(C(=O)OC(C)(C)C)S(=O)(=O)NCc1ccccc1`, the cell number change was -16.4%. Also, under setting [2], the AC50 is 29.1 µM [rising, single point].
For the compound `Cc1ccc(NC2CCCN(C(=O)c3ccc4[nH]ccc4c3)C2)cc1C` (centres undefined), the cell number change is 11.2%.
Take `COc1ccccc1N=Nc1ccc(O)c2ncccc12`: the cell number change was -53.9%. Moreover, the half-maximal activity concentration (AC50) under setting [1] is 18.4 µM [falling, single point]. Moreover, the half-maximal activity concentration (AC50) under setting [2] was 14.6 µM [falling, partial curve, poor fit].
For the compound `Clc1ncnc2scc(-c3ccccc3)c12`, the concentration at half-maximal activity (AC50) reads like this: under setting [1], 2.59 µM [falling, partial curve]; under setting [2], 6.51 µM [falling, single point].
On to `Cc1cc(C)c2nc(SCCc3ccccc3)nc(C)c2c1`, for which the AC50 reads like this: under setting [1], 1.3 µM [rising, partial curve]; under setting [2], 0.651 µM [rising, full curve].
Consider `O=C(CSc1nnc(-c2ccccc2F)o1)NC1CCCCC1`, for which the cell number change came to 37.1%. In addition, under setting [1], the AC50 is 23.1 µM [rising, partial curve]. Besides, the concentration at half-maximal activity (AC50) under setting [2] was 2.06 µM [rising, partial curve, poor fit].
